# According to US7737142B2, “(Thio) carbamoyl-cyclohexane derivatives as D3/D2 receptor antagonists” (Richter Gedeon Vegyeszeti Gyar Rt., priority 2003, dated 2010):
# Target: Alpha-1 receptor (rat brain cortical membrane preparation)
# Test: Alpha-1 receptor binding ([3H]-prasosin)
# Settings: rat brain cortical membranes, [3H]-prasosin 0.5 nM; read-out: Alfa-1 IC-50
structure (smiles),measurement,value
"Cc1nc2n(c(=O)c1CCN1CCC(c3noc4cc(F)ccc34)CC1)CCCC2 [Risperidone, reference compound]",IC50,1 to 10 nM
